This note sets out measurements from article PMC12339391.

The test deals with T1, Pex18-TPA (S. cerevisiae Pex18 fused C terminally with the TEV protease cleavage site and protein A tag) (S. cerevisiae) (UniProt P38855).
T1 sequence: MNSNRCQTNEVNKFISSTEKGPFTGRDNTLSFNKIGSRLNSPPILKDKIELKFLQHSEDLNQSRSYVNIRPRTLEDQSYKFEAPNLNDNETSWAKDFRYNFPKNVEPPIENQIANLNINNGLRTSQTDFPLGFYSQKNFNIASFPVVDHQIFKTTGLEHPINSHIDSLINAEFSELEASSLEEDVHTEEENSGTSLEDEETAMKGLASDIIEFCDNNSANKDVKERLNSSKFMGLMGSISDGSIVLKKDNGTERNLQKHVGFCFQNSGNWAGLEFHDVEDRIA
As to the kind of experiment: affinity purification with mass spectrometry; Pex18-TPA (protein A tag) as bait; native complexes from soluble fractions of yeast grown in oleic acid medium, eluted with TEV protease; control: untagged wild type; label-free quantification, n = 3.

These are yes or no findings as the source states them, for the method shown. Binding seen in cells or lysates may run through a third protein. A yes stands for co-enrichment or nearness to the bait. Other partners may have been found. Sequences can lack the tags named with a protein.

B1: ScPex39 (S. cerevisiae Yjr012c) (protein, UniProt P47087 1-132)
chain: MAAGGELSYEELLDHILNNKPIPNIVEVPNVTLDEGLASTPSLRPRPRPWEGQLQHQSHQGSLDKPNISLDIDQESLEGMTSLTRLSECYDIQSKLQINDSDNDNDDNNNDNNKGDGNDDDNNTVTANPTAR
Take B1: the binding entry is “binds”.

B2: Pex7 (S. cerevisiae) (protein, UniProt P39108 1-375)
chain: MLRYHMQGFSGYGVQYSPFFDNRLAVAAGSNFGLVGNGKLFILEIDRSGRIVEVNSFLTQDCLFDLAWNESHENQVLVAQGDGTLRLFDTTFKEFPIAIFKEHEREVFSCNWNLVNRQNFLSSSWDGSIKIWSPLRKQSLMTLTPRPLEITKMVDPLNAIILKKKSFTGISKNRNCVYQAQFSPHDQNLVLSCSGNSYASLFDIRLPSGKNQNNFLVHSGLEALTCDFNKYRPYVVATGGVDNAIRIWDIRMLNKNESATIKRTVPGQLHNSSCINEIPNAHGLAIRKVTWSPHHSNILMSASYDMTCRIWRDLSNDGAKETYKTNSTDATKGSIFNFTQHSEFVFGADWSLWGKPGYVASTAWDGNLFVWNGLG
As to B2, the binding entry is “binds”.
